This is an account of results in article PMC8934857.

No constants are given. Whether binding was seen depends on the method and setting. In cells and extracts the contact can be indirect. Binding calls can cover weak binding; strength is not graded here.

In assay [1] the target is T1, Annexin A1 (ANXA1) (human (endogenous in U251 MG)) (UniProt P04083).
T1 sequence: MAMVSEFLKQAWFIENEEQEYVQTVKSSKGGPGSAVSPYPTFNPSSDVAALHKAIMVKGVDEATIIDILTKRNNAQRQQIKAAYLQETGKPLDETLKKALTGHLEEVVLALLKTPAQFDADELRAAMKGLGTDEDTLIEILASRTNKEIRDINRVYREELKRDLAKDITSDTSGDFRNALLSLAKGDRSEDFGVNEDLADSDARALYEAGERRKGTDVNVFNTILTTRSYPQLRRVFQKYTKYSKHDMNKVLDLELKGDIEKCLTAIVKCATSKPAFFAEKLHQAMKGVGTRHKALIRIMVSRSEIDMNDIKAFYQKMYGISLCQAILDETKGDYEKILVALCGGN
The assay is described as follows: co-IP; endogenous co-IP from U251 MG cell lysate (medium-strength lysis buffer); anti-ANXA1 or anti-TNFR1 antibody overnight at 4°C, Protein A/G PLUS-Agarose, IgG as control; western blot. (In general: A western blot detects proteins with antibodies after separation by electrophoresis.)

In assay [2] the target is Tumour necrosis factor receptor 1 (TNFR1) (human (endogenous in U251 MG)). The description is as above.

“Tumour necrosis factor receptor 1 (TNFR1) (human (endogenous in U251 MG))”: the binding result in assay [1] was “binds”.

B1: Annexin A1 (ANXA1) (protein, UniProt P04083 1-346)
chain: T1 sequence
For B1, in assay [2], the binding result is listed as “binds”.
